We go through three substances from paper doi:10.1101/2021.11.07.467636.

Sequences of proteins named here, by UniProt entry; tags and fusion partners are left off.
UniProt Q02455: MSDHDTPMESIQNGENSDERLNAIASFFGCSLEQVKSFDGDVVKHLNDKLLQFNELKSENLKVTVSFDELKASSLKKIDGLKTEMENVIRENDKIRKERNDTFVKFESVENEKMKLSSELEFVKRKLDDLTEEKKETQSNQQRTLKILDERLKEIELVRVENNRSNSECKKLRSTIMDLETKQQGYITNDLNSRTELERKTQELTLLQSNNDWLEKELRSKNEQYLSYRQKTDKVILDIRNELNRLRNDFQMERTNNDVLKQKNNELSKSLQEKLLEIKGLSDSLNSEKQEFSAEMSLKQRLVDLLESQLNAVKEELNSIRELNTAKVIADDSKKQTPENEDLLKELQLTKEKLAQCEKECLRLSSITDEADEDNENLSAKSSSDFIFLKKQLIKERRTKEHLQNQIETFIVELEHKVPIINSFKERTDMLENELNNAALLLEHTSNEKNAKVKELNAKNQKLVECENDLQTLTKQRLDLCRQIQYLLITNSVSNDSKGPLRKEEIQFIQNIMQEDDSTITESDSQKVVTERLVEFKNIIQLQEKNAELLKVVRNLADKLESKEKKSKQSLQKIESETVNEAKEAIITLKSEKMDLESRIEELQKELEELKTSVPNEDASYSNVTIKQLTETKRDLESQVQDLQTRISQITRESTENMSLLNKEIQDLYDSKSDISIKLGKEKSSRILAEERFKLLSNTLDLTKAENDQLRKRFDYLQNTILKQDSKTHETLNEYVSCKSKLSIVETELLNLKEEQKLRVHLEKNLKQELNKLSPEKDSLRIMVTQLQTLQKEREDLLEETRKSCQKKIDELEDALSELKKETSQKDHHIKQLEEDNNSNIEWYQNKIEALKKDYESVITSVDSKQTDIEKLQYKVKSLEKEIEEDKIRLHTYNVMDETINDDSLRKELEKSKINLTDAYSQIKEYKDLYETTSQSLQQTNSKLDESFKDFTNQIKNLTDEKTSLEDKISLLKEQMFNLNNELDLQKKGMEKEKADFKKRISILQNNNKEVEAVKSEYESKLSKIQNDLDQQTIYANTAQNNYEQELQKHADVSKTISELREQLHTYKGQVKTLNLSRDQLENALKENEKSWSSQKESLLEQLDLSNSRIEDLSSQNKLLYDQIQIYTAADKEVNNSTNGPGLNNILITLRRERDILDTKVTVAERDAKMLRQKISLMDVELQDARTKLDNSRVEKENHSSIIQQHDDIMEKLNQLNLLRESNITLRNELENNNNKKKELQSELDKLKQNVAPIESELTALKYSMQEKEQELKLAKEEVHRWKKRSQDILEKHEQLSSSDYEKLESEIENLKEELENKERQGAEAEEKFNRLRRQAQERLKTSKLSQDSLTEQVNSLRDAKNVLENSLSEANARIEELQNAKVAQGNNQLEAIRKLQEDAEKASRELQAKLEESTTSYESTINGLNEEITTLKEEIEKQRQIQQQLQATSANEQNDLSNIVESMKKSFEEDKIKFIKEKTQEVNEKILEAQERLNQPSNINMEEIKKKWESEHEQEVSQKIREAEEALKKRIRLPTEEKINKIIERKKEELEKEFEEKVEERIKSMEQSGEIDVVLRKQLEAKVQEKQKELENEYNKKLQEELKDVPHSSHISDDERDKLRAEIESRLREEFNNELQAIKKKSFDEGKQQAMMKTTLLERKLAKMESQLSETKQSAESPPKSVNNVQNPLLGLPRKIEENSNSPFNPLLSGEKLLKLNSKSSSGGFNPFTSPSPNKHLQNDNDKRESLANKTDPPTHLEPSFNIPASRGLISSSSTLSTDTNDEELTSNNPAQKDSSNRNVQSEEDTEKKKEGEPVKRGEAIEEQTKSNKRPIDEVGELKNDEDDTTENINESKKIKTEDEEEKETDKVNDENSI
UniProt P40457: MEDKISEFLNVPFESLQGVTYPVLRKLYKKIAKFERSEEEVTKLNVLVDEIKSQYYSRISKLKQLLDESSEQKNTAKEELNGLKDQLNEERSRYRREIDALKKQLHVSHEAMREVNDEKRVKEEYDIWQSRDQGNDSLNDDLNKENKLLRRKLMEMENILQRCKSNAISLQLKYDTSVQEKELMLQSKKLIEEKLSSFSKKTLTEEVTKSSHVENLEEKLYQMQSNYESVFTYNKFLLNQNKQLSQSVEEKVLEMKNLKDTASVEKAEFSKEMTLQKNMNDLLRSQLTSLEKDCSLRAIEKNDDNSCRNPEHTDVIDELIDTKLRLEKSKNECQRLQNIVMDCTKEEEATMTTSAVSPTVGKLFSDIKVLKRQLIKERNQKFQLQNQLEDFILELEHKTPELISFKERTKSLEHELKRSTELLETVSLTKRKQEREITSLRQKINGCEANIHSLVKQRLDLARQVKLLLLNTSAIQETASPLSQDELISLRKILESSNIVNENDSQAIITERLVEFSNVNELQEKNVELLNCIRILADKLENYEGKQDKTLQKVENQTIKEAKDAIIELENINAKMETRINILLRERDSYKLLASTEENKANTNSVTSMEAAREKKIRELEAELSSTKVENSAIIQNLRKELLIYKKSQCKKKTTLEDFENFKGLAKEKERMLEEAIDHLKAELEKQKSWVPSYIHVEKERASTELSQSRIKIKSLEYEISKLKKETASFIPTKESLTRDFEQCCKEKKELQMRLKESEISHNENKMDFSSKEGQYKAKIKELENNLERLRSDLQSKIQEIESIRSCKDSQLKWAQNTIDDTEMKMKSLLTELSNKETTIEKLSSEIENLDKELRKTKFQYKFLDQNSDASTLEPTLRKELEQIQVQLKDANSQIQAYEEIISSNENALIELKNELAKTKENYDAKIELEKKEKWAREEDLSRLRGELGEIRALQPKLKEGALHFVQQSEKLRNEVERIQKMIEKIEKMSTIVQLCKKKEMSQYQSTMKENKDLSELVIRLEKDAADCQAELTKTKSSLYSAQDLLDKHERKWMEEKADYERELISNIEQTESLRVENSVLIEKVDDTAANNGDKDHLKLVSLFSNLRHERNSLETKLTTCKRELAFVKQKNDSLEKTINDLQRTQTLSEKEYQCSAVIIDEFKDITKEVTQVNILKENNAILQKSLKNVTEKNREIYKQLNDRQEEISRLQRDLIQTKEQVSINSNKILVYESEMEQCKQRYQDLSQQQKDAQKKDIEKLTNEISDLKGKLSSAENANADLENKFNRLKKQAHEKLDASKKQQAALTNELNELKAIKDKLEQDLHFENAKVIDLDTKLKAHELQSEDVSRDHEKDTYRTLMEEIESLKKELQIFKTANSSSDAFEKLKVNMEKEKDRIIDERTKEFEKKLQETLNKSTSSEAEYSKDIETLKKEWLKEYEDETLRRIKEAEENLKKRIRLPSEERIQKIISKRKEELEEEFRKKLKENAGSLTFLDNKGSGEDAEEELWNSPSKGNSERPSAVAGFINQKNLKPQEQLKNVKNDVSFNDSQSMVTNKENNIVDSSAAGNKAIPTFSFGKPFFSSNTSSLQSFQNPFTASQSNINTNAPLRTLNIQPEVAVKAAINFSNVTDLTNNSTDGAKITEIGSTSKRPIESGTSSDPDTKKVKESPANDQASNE
UniProt P04147: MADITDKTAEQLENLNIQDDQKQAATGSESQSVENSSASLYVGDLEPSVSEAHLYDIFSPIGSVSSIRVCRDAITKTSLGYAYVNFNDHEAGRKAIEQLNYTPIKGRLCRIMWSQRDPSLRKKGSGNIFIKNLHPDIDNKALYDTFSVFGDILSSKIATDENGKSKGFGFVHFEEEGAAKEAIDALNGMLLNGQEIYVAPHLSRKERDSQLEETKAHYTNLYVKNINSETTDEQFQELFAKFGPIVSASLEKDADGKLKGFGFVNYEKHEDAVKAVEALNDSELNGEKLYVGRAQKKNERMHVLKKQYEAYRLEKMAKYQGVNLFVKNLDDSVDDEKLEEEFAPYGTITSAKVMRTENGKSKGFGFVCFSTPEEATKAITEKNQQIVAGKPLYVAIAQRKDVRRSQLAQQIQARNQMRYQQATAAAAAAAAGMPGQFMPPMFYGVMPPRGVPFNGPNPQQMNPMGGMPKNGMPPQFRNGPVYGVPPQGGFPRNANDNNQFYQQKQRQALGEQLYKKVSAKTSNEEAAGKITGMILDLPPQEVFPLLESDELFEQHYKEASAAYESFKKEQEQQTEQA

Like-named read-outs stand apart in the source and are kept apart here. No constants are given. Whether binding was seen depends on the method and setting. Binding seen in cells or lysates may run through a third protein. Here binding means that the protein was enriched with, or labelled near, the bait; the list need not be complete. For part of these data: Where a sequence is shown, tags or fusion partners need not be part of it.

Experiment in all cases: affinity purification with mass spectrometry
Assay [1] addresses T1, Nup133-GFP (S. cerevisiae) (UniProt P36161).
T1 sequence: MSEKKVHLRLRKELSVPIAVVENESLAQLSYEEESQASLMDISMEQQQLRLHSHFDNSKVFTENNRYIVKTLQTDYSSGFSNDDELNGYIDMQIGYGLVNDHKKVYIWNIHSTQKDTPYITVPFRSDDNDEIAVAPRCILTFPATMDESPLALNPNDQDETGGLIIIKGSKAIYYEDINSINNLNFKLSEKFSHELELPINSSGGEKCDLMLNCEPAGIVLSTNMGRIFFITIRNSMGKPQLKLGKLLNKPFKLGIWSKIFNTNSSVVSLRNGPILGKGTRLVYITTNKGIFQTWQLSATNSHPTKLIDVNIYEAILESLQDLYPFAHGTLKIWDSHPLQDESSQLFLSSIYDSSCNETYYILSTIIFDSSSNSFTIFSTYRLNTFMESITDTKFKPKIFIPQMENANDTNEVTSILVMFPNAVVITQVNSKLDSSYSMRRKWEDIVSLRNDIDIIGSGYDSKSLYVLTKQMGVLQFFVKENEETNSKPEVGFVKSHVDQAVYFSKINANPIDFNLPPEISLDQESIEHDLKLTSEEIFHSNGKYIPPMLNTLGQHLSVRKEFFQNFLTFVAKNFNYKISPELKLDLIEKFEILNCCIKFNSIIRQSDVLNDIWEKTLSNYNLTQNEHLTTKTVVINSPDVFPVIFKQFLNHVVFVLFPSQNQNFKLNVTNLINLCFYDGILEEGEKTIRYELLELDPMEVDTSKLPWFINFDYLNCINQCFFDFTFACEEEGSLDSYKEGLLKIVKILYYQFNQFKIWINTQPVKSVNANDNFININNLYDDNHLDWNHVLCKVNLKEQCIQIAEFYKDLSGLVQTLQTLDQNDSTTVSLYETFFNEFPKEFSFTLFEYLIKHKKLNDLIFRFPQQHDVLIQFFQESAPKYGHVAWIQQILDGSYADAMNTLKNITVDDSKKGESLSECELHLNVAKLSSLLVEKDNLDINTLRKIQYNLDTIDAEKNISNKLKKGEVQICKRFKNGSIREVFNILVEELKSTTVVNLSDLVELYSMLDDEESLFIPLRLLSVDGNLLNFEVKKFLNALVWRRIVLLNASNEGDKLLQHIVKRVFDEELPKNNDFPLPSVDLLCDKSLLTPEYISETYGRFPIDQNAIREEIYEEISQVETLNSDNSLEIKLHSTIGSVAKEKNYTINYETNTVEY

Assay [2] has as its target Mlp1-PrA (S. cerevisiae) (UniProt Q02455).
The target in assay [3] is T1, Nup133-GFP (S. cerevisiae). The source holds these as a separate data set.

On to Mlp1-PrA (from UniProt Q02455 1-1875), for which, in assay [1], the binding result is “binds”.
For Mlp2 (from UniProt P40457 1-1679), the binding result in assay [1] and in assay [2] was “binds” throughout.
“poly(A)-binding protein Pab1 (from UniProt P04147 1-577)”: the binding entry in assay [3], in assay [1] and in assay [2] was “binds” each time.
